# Experimental data from the supplement of paper PMC8728848.
# The list shows a part of the results.
# B1: SUN4P (Saccharomyces cerevisiae), P53616 (protein)
# chain: MGSSHHHHHHSSGLVPRGSHNGSIYGDLADFSGPYEKFEDGTIPCGQFPSGQGVIPISWLDEGGWSGVENTDTSTGGSCKEGSYCSYACQPGMSKTQWPSDQPSDGRSIGGLLCKDGYLYRSNTDTDYLCEWGVDAAYVVSELSNDVAICLTDYPGTENMVIPTYVQAGDSLPLTVVDQDTYYTWQGLKTSAQYYVNNAGISVEDACVWGSSSSGVGNWAPLNFGAGSSDGVAYLSLIPNPNNGNALNFNVKIVAADDSSTVNGECIYENGSFSGGSDGCTVSVTAGKAKFVLYN
# Assays:
# Assay in all cases: glycan array binding signal (z-score within array); higher = stronger binding
# Conditions in all cases: glycan notation: IUPAC condensed, linker removed; mutation: R276L
# [1] = target: Gal3S(b1-3)[Fuc(a1-4)]GlcNAc
# Method in brief: (§1)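 The binding signal is a Z-score computed within each array and averaged over linkers. Arrays of the same protein sequence at different concentrations or buffers were also averaged together. Data originate from 3228 arrays in the Consortium for Functional Glycomics database, kept only where the protein sequence was available.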
# Gal3S(b1-4)Glc = target: Gal3S(b1-4)Glc
# Method in brief: as §1
# Gal3S(b1-4)Glc6S = target: Gal3S(b1-4)Glc6S
# Method in brief: as §1
# Gal3S(b1-4)GlcNAc = target: Gal3S(b1-4)GlcNAc
# Method in brief: as §1
# [2] = target: Gal3S(b1-4)[Fuc(a1-3)]Glc6S
# Method in brief: as §1
# [3] = target: Gal3S(b1-4)[Fuc(a1-3)]GlcNAc
# Method in brief: as §1
# [4] = target: Gal3S(b1-4)[Fuc(a1-3)]GlcNAc6S
# Method in brief: as §1
# Gal3S4S(b1-4)GlcNAc = target: Gal3S4S(b1-4)GlcNAc
# Method in brief: as §1
# Gal3S6S(b1-4)GlcNAc = target: Gal3S6S(b1-4)GlcNAc
# Method in brief: as §1
# Gal3S6S(b1-4)GlcNAc6S = target: Gal3S6S(b1-4)GlcNAc6S
# Method in brief: as §1
# Gal4S(b1-4)GlcNAc = target: Gal4S(b1-4)GlcNAc
# Method in brief: as §1
# Gal4S6S(b1-4)GlcNAc = target: Gal4S6S(b1-4)GlcNAc
# Method in brief: as §1
# Gal6P(b1-4)GlcNAc = target: Gal6P(b1-4)GlcNAc
# Method in brief: as §1
# Gal6S(b1-3)GlcNAc = target: Gal6S(b1-3)GlcNAc
# Method in brief: as §1
# Gal6S(b1-3)GlcNAc6S = target: Gal6S(b1-3)GlcNAc6S
# Method in brief: as §1
# Gal6S(b1-4)Glc = target: Gal6S(b1-4)Glc
# Method in brief: as §1
# Gal6S(b1-4)Glc6S = target: Gal6S(b1-4)Glc6S
# Method in brief: as §1
# Gal6S(b1-4)GlcNAc = target: Gal6S(b1-4)GlcNAc
# Method in brief: as §1
# Gal6S(b1-4)GlcNAc6S = target: Gal6S(b1-4)GlcNAc6S
# Method in brief: as §1
# GalNAc(a1-3)Gal = target: GalNAc(a1-3)Gal
# Method in brief: as §1
# GalNAc(a1-3)GalNAc = target: GalNAc(a1-3)GalNAc
# Method in brief: as §1
# [5] = target: GalNAc(a1-3)GalNAc(b1-3)Gal(a1-4)Gal(b1-4)Glc
# Method in brief: as §1
# [6] = target: GalNAc(a1-3)GalNAc(b1-3)Gal(a1-4)Gal(b1-4)GlcNAc
# Method in brief: as §1
# GalNAc(b1-3)Gal = target: GalNAc(b1-3)Gal
# Method in brief: as §1
# [7] = target: GalNAc(b1-3)Gal(a1-4)Gal(b1-4)GlcNAc
# Method in brief: as §1
# [8] = target: GalNAc(b1-3)Gal(a1-4)Gal(b1-4)GlcNAc(b1-3)Gal(b1-4)Glc
# Method in brief: as §1
# [9] = target: GalNAc(b1-3)Gal(a1-6)Gal(b1-4)Glc
# Method in brief: as §1
# GalNAc(b1-3)GalNAc = target: GalNAc(b1-3)GalNAc
# Method in brief: as §1
# GalNAc(b1-3)GlcNAc = target: GalNAc(b1-3)GlcNAc
# Method in brief: as §1
# GalNAc(b1-4)Gal(b1-4)Glc = target: GalNAc(b1-4)Gal(b1-4)Glc
# Method in brief: as §1
# GalNAc(b1-4)GlcNAc = target: GalNAc(b1-4)GlcNAc
# Method in brief: as §1
# [10] = target: GalNAc(b1-4)GlcNAc(b1-2)Man
# Method in brief: as §1
# [11] = target: GalNAc(b1-4)GlcNAc(b1-2)Man(a1-3)[GalNAc(b1-4)GlcNAc(b1-2)Man(a1-6)]Man(b1-4)GlcNAc(b1-4)GlcNAc
# Method in brief: as §1
# [12] = target: GalNAc(b1-4)GlcNAc(b1-3)GalNAc(b1-4)GlcNAc
# Method in brief: as §1
# GalNAc(b1-4)GlcNAc6S = target: GalNAc(b1-4)GlcNAc6S
# Method in brief: as §1
# GalNAc(b1-6)GalNAc = target: GalNAc(b1-6)GalNAc
# Method in brief: as §1
# GalNAc3S(b1-4)GlcNAc = target: GalNAc3S(b1-4)GlcNAc
# Method in brief: as §1
binder,measurement,setting,value
B1,glycan array binding signal (z-score),[1],-0.226
same,glycan array binding signal (z-score),Gal3S(b1-4)Glc,-0.367
same,glycan array binding signal (z-score),Gal3S(b1-4)Glc6S,1.03
same,glycan array binding signal (z-score),Gal3S(b1-4)GlcNAc,0.02
same,glycan array binding signal (z-score),[2],0.693
same,glycan array binding signal (z-score),[3],0.234
same,glycan array binding signal (z-score),[4],-0.491
same,glycan array binding signal (z-score),Gal3S4S(b1-4)GlcNAc,-0.244
same,glycan array binding signal (z-score),Gal3S6S(b1-4)GlcNAc,1.73
same,glycan array binding signal (z-score),Gal3S6S(b1-4)GlcNAc6S,1.36
same,glycan array binding signal (z-score),Gal4S(b1-4)GlcNAc,-0.198
same,glycan array binding signal (z-score),Gal4S6S(b1-4)GlcNAc,0.289
same,glycan array binding signal (z-score),Gal6P(b1-4)GlcNAc,-1.09
same,glycan array binding signal (z-score),Gal6S(b1-3)GlcNAc,-0.392
same,glycan array binding signal (z-score),Gal6S(b1-3)GlcNAc6S,1.12
same,glycan array binding signal (z-score),Gal6S(b1-4)Glc,-0.521
same,glycan array binding signal (z-score),Gal6S(b1-4)Glc6S,-1.75
same,glycan array binding signal (z-score),Gal6S(b1-4)GlcNAc,0.353
same,glycan array binding signal (z-score),Gal6S(b1-4)GlcNAc6S,1.73
same,glycan array binding signal (z-score),GalNAc(a1-3)Gal,0.676
same,glycan array binding signal (z-score),GalNAc(a1-3)GalNAc,-0.329
same,glycan array binding signal (z-score),[5],0.44
same,glycan array binding signal (z-score),[6],-0.339
same,glycan array binding signal (z-score),GalNAc(b1-3)Gal,0.255
same,glycan array binding signal (z-score),[7],0.975
same,glycan array binding signal (z-score),[8],0.11
same,glycan array binding signal (z-score),[9],-0.492
same,glycan array binding signal (z-score),GalNAc(b1-3)GalNAc,-1.61
same,glycan array binding signal (z-score),GalNAc(b1-3)GlcNAc,0.143
same,glycan array binding signal (z-score),GalNAc(b1-4)Gal(b1-4)Glc,-0.35
same,glycan array binding signal (z-score),GalNAc(b1-4)GlcNAc,-0.514
same,glycan array binding signal (z-score),[10],-0.288
same,glycan array binding signal (z-score),[11],0.301
same,glycan array binding signal (z-score),[12],-0.87
same,glycan array binding signal (z-score),GalNAc(b1-4)GlcNAc6S,0.524
same,glycan array binding signal (z-score),GalNAc(b1-6)GalNAc,-0.032
same,glycan array binding signal (z-score),GalNAc3S(b1-4)GlcNAc,0.123

# At a glance, some entries already given.
binder,measurement,setting,value
B1,glycan array binding signal (z-score),Gal6S(b1-4)Glc6S,-1.75
same,glycan array binding signal (z-score),Gal6S(b1-4)GlcNAc,0.353
